The values that follow are results of earlier work, collected in PMC11787888, “Development and confirmation of humanized plasma and epithelial lining fluid exposures of meropenem, cefiderocol and tobramycin in a standardized neutropenic murine pneumonia model” (Journal of Antimicrobial Chemotherapy, 2024).

Some results are limits rather than exact numbers.

In this data set the test system is K. pneumoniae CDC 851. Also noted: method as in earlier work. To be noted: cited from earlier work.

For `C[C@@H](O)[C@H]1C(=O)N2C(C(=O)O)=C(S[C@@H]3CN[C@H](C(=O)N(C)C)C3)[C@H](C)[C@H]12` [Meropenem, meropenem], the MIC is not above 0.12 µg/mL.
